PubChem BioAssay AID1259287 – Sanger Institute – 2017

- Purpose: 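Retest single siRNAs that may add killing with three colorectal cancer drugs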 (follow-up of hits)
- Cells: human HCT15 colorectal cancer cells
- Reagents: single siRNA against human genes
- Challenge: BYL719 1 µM, cetuximab 5 µg/ml or trametinib 10 nM, or DMSO vehicle
- Measurement: 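Survival scaled to control siRNA wells, then a synergy score per drug giving combined effect beyond the expected one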
- Reading the numbers: synergy score with BYL719 and synergy score with cetuximab and synergy score with trametinib: higher = stronger combined killing than expected
- Call rule: 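a hit if BYL719, cetuximab or trametinib yields synergy greater than 0.10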
- Calls: active = synergy with at least one drug; inactive = no synergy with any drug
The whole screen tested 160 reagents; shown is a part drawn at random. Of all reagents, 19 (12%) got an active call. 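Viability seems capped at 1; calls apply to HCT15 cells only, not to validation across other lines.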 Unmarked entries are inactive. Reagents against one gene are numbered here. Further read-outs or replicates are left out here. The record does not give: the amount of reagent, the time to read-out.

no.	target	reagent	synergy score with BYL719	synergy score with cetuximab	synergy score with trametinib
1	COASY	1	-0.117	-0.0835	-0.0435
2	COASY	2	-0.0534	-0.126	0.0498
3	COASY	3	-0.0606	-0.00479	-0.0327
4	COASY	4	-0.0476	-0.0753	-0.00844
5	PFKFB3	1	-0.0543	-0.0222	-0.0384
6	PFKFB3	2	-0.00456	-0.132	-0.0383
7	PFKFB3	3	-0.0811	-0.107	-0.208
8	PFKFB3	4	0.018	-0.179	0.0428
9	CAMK2N1	1	-0.113	-0.187	-0.15
10	CAMK2N1	2	0.184 (active)	-0.0934	-0.265
11	CAMK2N1	3	-0.111	-0.113	-0.0131
12	CAMK2N1	4	-0.0737	0.0501	0.0375
13	IRAK3	1	-0.154	-0.0504	-0.0223
14	IRAK3	2	0.137 (active)	0.126	0.0531
15	IRAK3	3	-0.152	-0.0897	-0.07
16	IRAK3	4	-0.195	-0.0964	0.0567

Limited to “synergy score with trametinib”, for 2 of the entries above:
PFKFB3 #3: -0.208
PFKFB3 #4: 0.0428

The results go on:
no.	target	reagent	synergy score with BYL719	synergy score with cetuximab	synergy score with trametinib
17	IRAK1	1	0.0363 (active)	0.0381	0.405
18	IRAK1	2	0.0782	-0.0172	0.026
19	IRAK1	3	0.0579	0.0481	0.0848
20	IRAK1	4	0.168 (active)	0.00419	-0.0666
21	CSNK2A2	1	-0.168	-0.046	-0.0912
22	CSNK2A2	2	-0.176	-0.115	-0.0615
23	CSNK2A2	3	0.0151	-0.0961	-0.0503
24	CSNK2A2	4	-0.148	-0.102	-0.0284
